The campaign covered roughly 1,400 compounds. About 45 (3%) were called active.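 How the source made its calls: active means half-maximal dose of signal decrease from fit no higher than ten times the top valid tested dose; inconclusive means fit invalid, or curve flat with 30 to 70% inhibition; inactive means the rest.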 Some of the results follow. Entries with a potency or affinity are not part of this list.
molecular target: Lysine-specific demethylase 4A (Homo sapiens) (UniProt O75164); assay: inhibition of JMJD2A H3K9me3 demethylation – biochemical, DELFIA europium, cherry-picked samples, selectivity assay for GASC-1 inhibitor project, dose response (AID 488840); settings: GST-JMJD2A(1-420) H3K9me3 demethylation; at 6 µM (top of the series) unless noted;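 further: europium signal reports the dimethyl H3K9 product detected by antibody so inhibitors lower it; 0% = median of neutral control wells and -100% = median of positive control wells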

Protein sequences, listed by entry. Tags and fused reporters are not part of them. Lines headed by an entry give the natural chain unless they say otherwise; changes in a name come on top.
UniProt O75164: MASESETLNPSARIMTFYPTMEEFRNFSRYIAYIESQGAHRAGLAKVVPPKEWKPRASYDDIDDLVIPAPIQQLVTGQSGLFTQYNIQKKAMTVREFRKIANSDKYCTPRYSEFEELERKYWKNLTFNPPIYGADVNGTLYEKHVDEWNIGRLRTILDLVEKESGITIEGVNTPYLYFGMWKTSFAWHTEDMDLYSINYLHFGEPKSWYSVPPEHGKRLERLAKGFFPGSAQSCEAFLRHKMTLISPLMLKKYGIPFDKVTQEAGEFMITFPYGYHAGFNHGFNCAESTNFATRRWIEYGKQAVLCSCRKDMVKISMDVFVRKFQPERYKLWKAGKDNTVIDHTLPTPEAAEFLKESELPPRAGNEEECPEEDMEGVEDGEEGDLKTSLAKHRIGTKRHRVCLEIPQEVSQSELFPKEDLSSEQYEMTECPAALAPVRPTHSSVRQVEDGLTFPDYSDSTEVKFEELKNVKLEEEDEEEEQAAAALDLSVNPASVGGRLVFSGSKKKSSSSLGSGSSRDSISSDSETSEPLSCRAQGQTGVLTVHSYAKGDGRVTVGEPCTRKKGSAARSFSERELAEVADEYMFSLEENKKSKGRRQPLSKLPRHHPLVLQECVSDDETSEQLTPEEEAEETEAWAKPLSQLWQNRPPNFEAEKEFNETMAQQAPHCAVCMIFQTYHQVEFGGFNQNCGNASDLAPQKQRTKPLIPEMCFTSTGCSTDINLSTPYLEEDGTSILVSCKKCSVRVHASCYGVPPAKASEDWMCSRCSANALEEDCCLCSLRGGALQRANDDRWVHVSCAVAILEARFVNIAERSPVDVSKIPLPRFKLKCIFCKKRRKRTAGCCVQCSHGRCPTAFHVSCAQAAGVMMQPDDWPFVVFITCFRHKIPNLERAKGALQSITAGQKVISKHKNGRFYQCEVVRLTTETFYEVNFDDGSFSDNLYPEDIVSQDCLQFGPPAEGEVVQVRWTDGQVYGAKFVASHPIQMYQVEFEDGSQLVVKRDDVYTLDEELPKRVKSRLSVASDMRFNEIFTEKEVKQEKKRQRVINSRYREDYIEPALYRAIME

Activity change, negative = inhibition, inactive:
CC(=O)OCC1OC(OC2C[C@]3(C)C(CC(O)C4C([C@](C)(CCC=C(C)C)OC5OC(CO)C(O)C(O)C5O)CC[C@]43C)[C@@]3(C)CCC(O)C(C)(C)C23)C(O[C@@H]2OC(C)C(O)C(O)C2O)C(O)C1O (some centres not stated) -0.785%
COc1ccc(N(CC(=O)Nc2ccc(S(=O)(=O)N3CCCC3)cc2)S(C)(=O)=O)cc1OC -3.77%
Nc1cccc(C(=O)Nc2ccco2)c1 -3.86%
CCOC(=O)c1sc2nc(N3CCOCC3)c3c(c2c1N)CCN(Cc1ccccc1)C3 2.62%
O=C(Nc1ccccn1)c1ccc(C(=O)c2ccccc2)cc1 2.41%
Cc1onc(-c2ccccc2)c1C(=O)Nc1c(C)n(C)n(-c2ccccc2)c1=O -0.799%
O=C(N/N=C/c1cc([N+](=O)[O-])cc([N+](=O)[O-])c1O)/C(=C\c1cccs1)NC(=O)c1ccccc1 1.28%
COc1ccc(NC(=O)O/N=C/c2ccccc2)cc1 5.42%
O=C(CCc1ccccc1)c1ccc2c(c1)OCCCO2 -1.66%
CN(C)c1nc(C(=O)Nc2ccccc2)nc(N(C)C)n1 -0.74%
O=S(=O)(NCCSCc1ccc(Cl)c(Cl)c1)c1ccc2c(c1)OCCO2 -6.95%
COc1ccc(NS(=O)(=O)c2cccc(C(=O)OCC(=O)Nc3cc(C)on3)c2)cc1 -0.36%
Cc1noc(C)c1S(=O)(=O)N(C)C[C@H]1Oc2c(NC(=O)Nc3ccc(C(F)(F)F)cc3)cccc2C(=O)N([C@H](C)CO)C[C@@H]1C -0.632%
CCOC(=O)c1c(S(=O)(=O)N2CCCC(C(=O)Nc3ccc(C)cn3)C2)c(C)n(C)c1C (configuration not stated) -4.67%
Cc1ccc(O)c(N=NC2=C(O)CC(C)(C)CC2=O)c1 6.97%
O=C(NC1CCCCC1)NC1C2CC3CC(C2)CC1C3 (configuration not stated) 7.58%
CC(=O)c1nnn(-c2nc(N3CCCC3)nc(N(c3ccccc3)c3ccccc3)n2)c1C -2.9%
COc1ccc(C2CC(=O)C=C(NNS(=O)(=O)c3ccc(C)cc3)C2)cc1 (configuration not stated) 6.73%
CCc1ccc(CCC(=O)Nc2sc3c(c2C#N)CCCC3)o1 2.59%
CN1N=C(C(F)(F)F)CC1=O -0.844%
COc1ccc(CCNCCN2CCOCC2)cc1 7.71%
COc1ccc(CN2CCNC(=O)C2CC(=O)NCc2csc(C(C)C)n2)c(OC)c1 (configuration not stated) -0.902%
O=S(=O)(c1ccc2ccccc2c1)N(CC(O)COCc1ccco1)c1ccccc1 (configuration not stated) -3.17%
COc1ccc2cc(Br)ccc2c1CC(=O)NCCCN1CCOCC1 2.24%
COC(=O)[C@]1(C)N[C@H](CN(C)S(=O)(=O)c2ccc(C)cc2)[C@@H]2C(=O)N(Cc3ccccc3)C(=O)[C@@H]21 8.69%
C[C@H](CO)N1C[C@H](C)[C@@H](CN(C)C(=O)Nc2ccccc2)Oc2c(NC(=O)c3ccncc3)cccc2C1=O -5.2%
O=c1cnnc(Nc2ccccc2)[nH]1 -3.76%
Cc1ccc(C(=O)Oc2csc(=S)n2C(=O)c2ccc(C)cc2)cc1 -2.83%
Cc1ccccc1NC(=O)C1CC(=O)OC12CCOC(C)(C)C2 (configuration not stated) -0.856%
COCCn1c(C(C)C)nc2sc3ccccc3c(=O)c2c1=O 0.716%
O=C(Oc1ccc(N2C(=O)CCC2=O)cc1)c1ccccc1 -0.204%
O=C(O)CCNc1ccc2c(c1)OCCO2 3.65%
CCc1ccc(NC(=O)C/C(C)=N/NC(=O)COc2ccc(C)cc2Br)cc1 5.2%
CCC(=O)N1CCc2cc(S(=O)(=O)CCC(=O)Nc3cccc(F)c3)ccc21 3.52%
O=C(O)CCC(=O)Nc1nc2nc(-c3ccccc3)cc(-c3ccccc3)n2n1 5.32%
CC(C)=CCN1CCN(Cc2cn[nH]c2C2CCCCC2)CC1CCO (configuration not stated) -1.51%
COc1ccc(CCC(=O)Nc2sccc2C#N)cc1 -0.731%
O=c1cc(NC2CCCCCC2)[nH]c(=O)[nH]1 -9.15%
O=C(CN1C(=O)NC2(CCOc3ccccc32)C1=O)c1ccc[nH]1 (configuration not stated) -1.74%
CC(C)CN(C(=O)c1ccc(N2CCCC2=O)cc1)c1c(N)n(Cc2ccccc2)c(=O)[nH]c1=O 8.41%
COc1cccc(S(=O)(=O)Nc2cccc(C(=O)N3CCCCCC3)c2)c1 -2.69%
O=C(NNC(=O)c1ccc(SCC2CCCO2)c([N+](=O)[O-])c1)c1ccc(Cl)c([N+](=O)[O-])c1 (configuration not stated) -5.44%
COc1ccc(NC(=O)NC(C)c2ccc3c(c2)OCO3)c(OC)c1 (configuration not stated) -3.13%
CCCn1c(SCC(=O)Nc2c(C)cccc2CC)nnc1C(C)C 2.86%
Cc1cc(Cl)ccc1OCC(=O)NCCCN1CCOCC1 0.331%
c1ccc(-c2csc(-n3cccn3)n2)cc1 -5.8%
COc1ccc(C(=O)Nc2ncc3c(n2)CC(c2ccco2)CC3=O)cc1 (configuration not stated) 2.4%
COc1ccc(OCC(=O)N/N=C/C(C)=C/c2ccco2)c(Br)c1 -1.99%
O=C(O)c1ccc2c(c1)nnn2C1CCCCC1 3.78%
COC(=O)C1CC(O)CN1C(=O)NC1CCCCC1 (configuration not stated) -1.32%
N#CCCCCN1c2cccc3cccc(c23)S1(=O)=O 0.123%
COc1ccc(NC(=O)N(C)C[C@H]2Oc3c(NS(=O)(=O)c4cccs4)cccc3C(=O)N([C@H](C)CO)C[C@@H]2C)cc1 0.615%
CCCn1c2ccccc2c2nnc(SCC(=O)Nc3c(C)n(C)n(-c4ccccc4)c3=O)nc21 0.443%
COc1ccccc1Cc1nnc(NC(=O)C2CCN(C(=O)c3ccco3)CC2)s1 -1.48%
CC1(C)CC2(CC(C)(C)N1)OC(=O)N1CCc3ccccc3C12C (configuration not stated) -5.51%
CC(C)(C)c1ccc(S(=O)(=O)NCc2ccc(C(=O)N3CCCC3)cc2)cc1 -1.01%
CSc1nnnn1CCn1nnnc1SC 2.54%
COc1cc(/C=N/N2CCN(c3ccccc3OC)CC2)ccc1O -6.9%
COc1ccc(-c2n[nH]c(=S)n2C2CCCCC2)cc1 -54.1%
Nc1nc(C2CC(=O)OC23CCCCC3)cs1 (configuration not stated) -2.84%
Cc1cc(Cl)ccc1OCC(=O)N1CCCCC1 2.36%
CCOc1ccccc1Nc1nc2ccccc2n2cnnc12 -6.63%
COc1ccc(/C=C2\Sc3ccc(C(=O)N4CCCC4)cc3N(C)C2=O)cc1OC -0.904%
O=C(COC(=O)CCC(=O)c1cccs1)Nc1ccc(S(=O)(=O)N2CCOCC2)cc1 -9.01%
COc1ccc2c(C(=O)CN3CCN(c4ccccc4)CC3)c[nH]c2c1 1.19%
Cc1ccc(Nc2nc3nonc3nc2N(C)C)cc1 13.4%
CC[C@]12c3[nH]c4ccccc4c3CCN1C(=O)C(CC(=O)NCCCOC)C[C@@H]2C(=O)N1CCN(C(=O)c2ccco2)CC1 (some centres not stated) -4.78%
CC(=O)c1c(C(C)=O)c(C)n(NC(=O)c2ccncc2)c1C -1.43%
Cc1ccccc1-n1nc(C)c2cc(C(=O)N3CCN(S(=O)(=O)c4ccc(F)cc4)CC3)sc21 -3.6%
O=[N+]([O-])c1ccc(/C=[N+](\[O-])[C@@H]2CCCC[C@@H]2/[N+]([O-])=C/c2ccc([N+](=O)[O-])o2)o1 -0.265%
N=c1nc(-c2ccccc2)ccn1O 2.55%
CCCCCC1CC(=O)N(Cc2ccccc2)C(=O)N1 (configuration not stated) 2.13%
c1ccc(-c2ccccc2OCCN2CCCC2)cc1 0.528%
COc1ccc(CN(Cc2nc3ccccc3c(=O)[nH]2)C(=O)NC2CCCCC2)cc1 1.62%
CCOc1ccc(CN2CCN(Cc3nc(C(C)C)cs3)CC2CCO)cc1 (configuration not stated) 9.55%
COc1ccc(NC(=O)N(C)C[C@H]2Oc3c(NC(=O)C4CCCCC4)cccc3C(=O)N([C@H](C)CO)C[C@@H]2C)cc1 -0.592%
Cc1ccc(NC(=O)CSc2ncccn2)c([N+](=O)[O-])c1 -0.294%
O=C(c1ccncc1)N1N=C(C2CCCCC2)CC1(O)C(F)(F)F (configuration not stated) -3.98%
CCCN1C(=O)c2ccc(C(=O)Nc3cc(C)ccc3O)cc2C1=O -4.14%
COC(=O)c1sc(S(=O)(=O)NCc2ccccc2)c(C(=O)OC)c1C -3.12%
COc1ccc(C2/C(=C(/O)c3ccccc3)C(=O)C(=O)N2CCN2CCOCC2)c(OC)c1 (configuration not stated) -0.793%
C#CCOCCOCCOCCNc1nc(N2CCN(C(=O)CCCCCCCCCCNC(=O)[C@H](CCCCN)n3cc(CCO)nn3)CC2)nc(N2CCN(C(=O)CCCCCCCCCCNC(=O)[C@H](CCCCN)n3cc(C[C@@H](C)CC)nn3)CC2)n1 21.3%
O=C(NC1CCCc2ccccc21)c1ccc(Br)cc1 (configuration not stated) 2.31%
Cc1ccc(-c2csc(NC(=O)CSc3nc(C)cc(=O)[nH]3)n2)cc1 1.45%
O=C(CC1NC(=O)NC1=O)Nc1ccccc1 (configuration not stated) 1.09%
O=Cc1ccc(C(=O)OCC(=O)Nc2ccc(F)cc2F)cc1 -4.33%
Cc1cc(C)n(-c2nnc(C)n2/N=C/c2ccco2)n1 -8.26%

Entries listed so far with a nitro group on carbon (four):
Activity change, negative = inhibition, inactive:
O=C(N/N=C/c1cc([N+](=O)[O-])cc([N+](=O)[O-])c1O)/C(=C\c1cccs1)NC(=O)c1ccccc1 1.28%
O=C(NNC(=O)c1ccc(SCC2CCCO2)c([N+](=O)[O-])c1)c1ccc(Cl)c([N+](=O)[O-])c1 (configuration not stated) -5.44%
O=[N+]([O-])c1ccc(/C=[N+](\[O-])[C@@H]2CCCC[C@@H]2/[N+]([O-])=C/c2ccc([N+](=O)[O-])o2)o1 -0.265%
Cc1ccc(NC(=O)CSc2ncccn2)c([N+](=O)[O-])c1 -0.294%

Reference: PubChem BioAssay AID488840 (Broad Institute, 2010)
